Results are given in words; binding and its absence hold for the method and conditions named.
Target: SBD (sulfur-binding domain) of ScoMcrA (residues 91-260) (Streptomyces coelicolor) (UniProt Q9L0M9)
Assay: crystal structure; ScoMcrA-SBD (91-260) with 8 bp Rp PT-DNA, 1.70 Å; one SBD and one PT-DNA in each asymmetric unit; both purified

B1: SBD (sulfur-binding domain) of ScoMcrA (residues 91-260) (domain or fragment, UniProt Q9L0M9 91-260)
chain: REAPKTFHRRVGDVRPARRAMGPALHRPVLLLWAIGQAVARAPRLQPWSTTRDAVAPLMEKYGQVEDGVDGVRYPFWALVRDDLWCVEQAEELTLTSRGRRPTLESLNAVDPSAGLREDDYNLLRSQPEAAASAAAGLIARYFHLLPAGLLEDFGLHELLAGRWPDALRP
- binding: no binding

From paper PMC6224610, “Structural basis for the recognition of sulfur in phosphorothioated DNA” (Nature Communications, 2018)
